# Data from PubChem BioAssay AID1259354 (Paczesny and Yang Labs, IUPUI and University of Michigan, 2018).
# Chains of the proteins cited; added tags and fusions are not shown. Lines headed by an entry give the natural chain unless they say otherwise; changes in a name come on top.
# UniProt Q01638: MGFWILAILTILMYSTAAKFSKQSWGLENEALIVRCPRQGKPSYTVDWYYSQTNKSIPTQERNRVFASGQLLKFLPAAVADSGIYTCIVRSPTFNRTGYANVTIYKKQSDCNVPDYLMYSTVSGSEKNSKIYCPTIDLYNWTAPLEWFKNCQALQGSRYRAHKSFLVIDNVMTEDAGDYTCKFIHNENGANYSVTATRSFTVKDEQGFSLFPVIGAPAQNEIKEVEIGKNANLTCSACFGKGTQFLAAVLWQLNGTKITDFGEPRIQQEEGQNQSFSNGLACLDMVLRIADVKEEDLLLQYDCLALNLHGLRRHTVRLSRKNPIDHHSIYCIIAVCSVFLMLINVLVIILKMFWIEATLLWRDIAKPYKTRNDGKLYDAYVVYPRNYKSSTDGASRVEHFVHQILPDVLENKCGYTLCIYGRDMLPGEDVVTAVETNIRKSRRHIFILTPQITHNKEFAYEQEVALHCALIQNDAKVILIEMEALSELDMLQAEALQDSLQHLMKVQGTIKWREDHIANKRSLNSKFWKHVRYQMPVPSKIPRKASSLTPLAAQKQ
# “And” between values parts separate entries of the source, which are not always exact repeats. Identical values can stand only once. The whole screen tested about 78,000 compounds, of which about 1,800 (2.3%) were called active. Inconclusive means that the source gave no clear call. Such entries were picked first, then a sample of the others. Cut-off read from the data, not from the text of the source: active = inhibition above about 30%; inconclusive = mostly about 10% to 28%; inactive = weaker than that.
# Biological target: Interleukin-1 receptor-like 1 (Homo sapiens) (UniProt Q01638)
# Experiment: blocks human ST2 binding to IL-33, primary screen, biochemical, AlphaLISA (AID 1259354)
# Conditions: AlphaLISA ST2-Fc/biotin-IL-33 interaction, 1 h; at 17 µM, stronger effect = higher value
row,Structure (SMILES),inhibition
1,O=C(Nc1cccnc1)c1cccc(C(=O)Nc2cccnc2)n1,inconclusive: 15%
2,CC1=C(C(N)=O)C(c2cccc(F)c2)n2nc(SCc3ccccc3F)nc2N1 (centres undefined),inactive
3,COc1ccc2c(c1)CCc1c(C(=O)Nc3ccc(F)c(Cl)c3)noc1-2,inconclusive: 11%
4,O=c1[nH]c2ccc(S(=O)(=O)Nc3ccc(OC(F)(F)F)cc3)cc2o1,inconclusive: 14%
5,CC1=NN(c2cccc(Cl)c2)C(=O)/C1=C\c1ccc(Br)c([N+](=O)[O-])c1,inconclusive: 21%
6,CCSc1oc(-c2cccs2)nc1S(=O)(=O)c1ccc(C)cc1,inactive
7,O=C(c1ccncc1)N1C[C@@H]2C[C@H](C1)c1ccc(-c3ccccc3CN3CCOCC3)c(=O)n1C2,inactive
8,CCOc1ccc(N2C(=O)C3C(C2=O)[C@H]2C=C[C@@H]3CC2)cc1 (some centres undefined),inactive
9,CN1CCC2(CC1)CN(C(=O)CN1CCOC1=O)CCCN2C,inconclusive: 14%
10,CC(C)Oc1cccc(C(=O)C2CCCN(C(=O)/C=C/c3cccs3)C2)c1 (centres undefined),inactive
11,O=C(CCC1CCCN(C2CCN(c3ccccc3)CC2)C1)NCc1ccccc1Cl (centres undefined),inconclusive: 16%
12,Cc1cccc(C(=O)N2CCN=C2SCc2cccnc2)c1,inactive
13,Cc1ccc(-c2noc([C@@H]3Cc4nc[nH]c4CN3C(=O)c3ccc(F)cc3)n2)cc1,inactive
14,CCN1CCN(c2cc(C)c3cc(NC(=O)CCC(=O)NCC4CCCO4)ccc3n2)CC1 (centres undefined),inactive
15,O=C1NCC(=O)N2CCN(C(=O)c3ccc4cccc(F)c4n3)CC12 (centres undefined),inactive
16,O=[N+]([O-])c1ccccc1Oc1ccccc1,active: 30%
17,O=C(Nc1cc(Cl)ccc1O)c1noc2c1CCc1ccccc1-2,inactive
18,Cc1ncc(C(=O)N2CCCC3(CC2)CN(C)C(=O)O3)c(-c2ccccc2)n1 (centres undefined),inconclusive: 15%
19,O=[N+]([O-])c1ccc(N=Cc2cc(Br)cc([N+](=O)[O-])c2O)cc1,inconclusive: 16%
20,CC1=C(C(=O)Nc2ccc(C)cn2)C(c2cccc(Br)c2)C2=C(CCCC2=O)N1 (centres undefined),inconclusive: 11%

row,Structure (SMILES),inhibition
1,CC1=C(C(=O)N2CCc3c(cc(-c4cccc5nc(C)ccc45)c(=O)n3CC3CC3)C2)OCCO1,inconclusive: 11%
2,CCC(CC)NC(=O)c1cccc(Br)c1,inconclusive: 14%
3,COc1ccc(-n2ncc3c(N4CCCCCC4)ncnc32)cc1,inactive
4,Cc1cc(F)ccc1NC(=O)C(C)NC(=O)Cc1nonc1C (centres undefined),inactive
5,Cc1ccc(Nc2nnc(Cc3ccc(Cl)cc3)c(=O)[nH]2)c(C)c1,inactive
6,CCN1CCCC1CN(CC1CCN(CCOC)CC1)C(=O)c1sccc1C (centres undefined),inactive
7,O=C(Cn1c(CCNC(=O)c2ccc(F)cc2)nc2ccccc21)c1ccccc1,inconclusive: 11%
8,CCOc1ccc(N2CC(C(=O)Nc3cccc(OC)c3)CC2=O)cc1 (centres undefined),inactive
9,Cc1ccc(-n2ncc3c(=O)n(CC(=O)NCC4CCCO4)cnc32)cc1 (centres undefined),inconclusive: 12%
10,O=C(/C=C1\Sc2ccccc2NC1=O)NCCCN1CCCC1=O,inconclusive: 15%
11,COc1ccc(Nc2cc(C)nc(Nc3ccc(NC(=O)c4cccc(C)c4)cc3)n2)cc1,inconclusive: 11%
12,COc1cc(S(=O)(=O)N2CCN(c3nc(C)cc(N(C)C)n3)CC2)c(C)cc1C,inconclusive: 11%
13,O=C(Nc1ccc(F)cc1F)c1cc2c(=O)oc3ccccc3c2s1,inconclusive: 14%
14,Cc1ccc(NC(=O)c2cccs2)cc1NC(=O)c1cccs1,inactive
15,O=C(O)CCC(=O)N[C@H]1CCN2C(=O)c3ccccc3NC(=O)[C@H]12,inconclusive: 11%
16,Cc1cccc(NC(c2ccccn2)c2ccc3ccc(C)nc3c2O)n1 (centres undefined),inconclusive: 12%
17,Cc1ccc2[nH]cc(-c3nc(C)cnc3C)c2c1,inconclusive: 13%
18,[O-][n+]1onc2c1CCc1c-2nn(-c2ccccc2Cl)[n+]1[O-],inconclusive: 16%
19,CCc1cccc(NC(=O)CN2CCCN(Cc3ccccc3)S2(=O)=O)c1,inactive
20,O=C1CCCC2=C1C(c1ccc(O)cc1)n1nc(SCc3ccccc3F)nc1N2 (centres undefined),inconclusive: 15%

row,Structure (SMILES),inhibition
1,COc1ccc(N2CCN(c3ncnc4sc(C(=O)NCC5CCCO5)c(C)c34)CC2)cc1 (centres undefined),inactive
2,COc1cccc(-c2[nH]cnc2-c2ccccc2)c1OC,inconclusive: 22%
3,COc1ccc(CN2CCc3ccccc3C2)c(OC)c1OC,inconclusive: 20%
4,Cc1c(Cl)cccc1NC(=O)C1CCN(C(=O)Cc2ccccc2)CC1,inconclusive: 11%
5,CCCc1cc(C(=O)N2CCc3c(c(C(=O)N4CCOCC4)nn3CCCc3ccccc3)C2)no1,inconclusive: 14%
6,COc1ccc(-c2noc([C@@H]3C[C@H](NS(=O)(=O)c4ccc5ccccc5c4)CN3C)n2)cc1,inconclusive: 19%
7,CCCCOc1ccc(C2=N/C(=C\c3ccc(N(C)C)cc3)C(=O)O2)cc1,active: 37%
8,CC(C)CN1CCC(CNC(=O)c2ccc(N3CCCOCC3)nc2)C1 (centres undefined),inactive
9,Cc1onc(-c2c(Cl)cccc2Cl)c1C(=O)Nc1cc(=O)n(C)c(=O)n1C,inconclusive: 11%
10,CN(C)c1ccc(/C=C2\C(=O)Nc3ccc(Br)cc32)cc1,inconclusive: 18%
11,CCOC(=O)C1=NN(c2ccccc2)C2C(=O)N(c3cccc(Cl)c3)C(=O)C12 (centres undefined),inactive
12,CCCOc1ccc2oc(=O)c3c(c2c1)CCCN3C(=O)CN1CCCC1,inactive
13,Cc1cc(C)n2nc(S(=O)(=O)Nc3cccc(F)c3)nc2n1,inconclusive: 14%
14,COc1ccc(C2=NN3COc4ccc(Br)cc4C3C2)cc1 (centres undefined),active: 36% and inconclusive: 16%
15,Cc1ccc(C(=O)Nc2ncnc3sc4c(c23)CCCC4)cc1,inconclusive: 14%
16,CCOC(=O)Cn1c(=O)n(-c2ccc(C)c(C)c2)c2nc(-c3cccc(OC)c3)nc(C(N)=O)c21,inactive
17,Cc1ccc(NC(=O)CC2Sc3ccccc3NC2=O)c([N+](=O)[O-])c1 (centres undefined),inactive
18,Nc1c(C(=O)NCc2ccccc2)nnn1Cc1cccc(F)c1,inconclusive: 15%
19,O=C(Nc1cccc(F)c1)c1cnn(-c2ccccc2)c1C1CCNCC1,inconclusive: 11%
